# Source: PubChem BioAssay AID540303 (National Center for Advancing Translational Sciences (NCATS), 2011)
# The campaign covered roughly 330,000 compounds. About 1,000 (0.3%) were called active. Inconclusive results, whose numbers are uncertain, are shown with a selection of clear calls. Calls come from the whole dose curve; as a rule, active = well fitted inhibition curve with a large enough effect; inconclusive = small, poorly fitted or top-dose-only effect; inactive = no such curve, though single readings can be large or run the other way; tested in mouse RAW 264.7 cells. Where the call is inconclusive, the potency comes from a doubtful curve fit.
# Experiment: qHTS for Inhibitors of Cell Surface uPA Generation; note: nearly all actives have a fitted effect of over 55% in size
# Details: cell surface uPA generation assay; series mostly up to 38.3 µM; activity change, negative = inhibition: at the top concentration
# How it was run: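 RAW 264.7 cells (4000/well) were plated overnight at 37 C and then given compounds in a 1:5 series (up to 38.3 uM final) plus reagent for 24 h. Intracellular ATP was measured by ATP-Lite luminescence and stays elevated when uPA-dependent LF entry is blocked.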
# % is set by controls: 0 for no effect and ±100 for the full control effect; potency is the fitted concentration of half-maximal effect.
Compound,Potency,"activity change, negative = inhibition"
CC(=O)c1c(N2CCN(Cc3ccccc3)CC2)nc(=S)n(-c2ccccc2)c1C,"inconclusive: 8.91 µM [inhibitor, partial curve]",
CCOC(=O)CNC(=O)C1(/C=C/c2ccccc2)CC(=O)N1c1ccc(C)cc1 (stereo not drawn),"inconclusive: 12.6 µM [inhibitor, single point]",
CCOC(=O)c1[nH]cnc1C(=O)Nc1ccc(C)cc1,,inactive: -0.769%
CC(C)Oc1ncnc2c1[nH]c1ccccc12,"inconclusive: 6.31 µM [inhibitor, partial curve, poor fit]",
COc1ccc(C(NC(=O)C(C)C)c2c(O)ccc3ccccc23)cc1 (stereo not drawn),"inconclusive: 7.94 µM [inhibitor, single point]",
O=c1[nH]nc(SCCS(=O)(=O)c2ccc(F)cc2)n1-c1ccccc1,"inconclusive: 12.6 µM [inhibitor, single point]",
CC1Cc2ccccc2N1S(=O)(=O)c1cccc(C(=O)N2Cc3ccccc3CC2C(N)=O)c1 (stereo not drawn),"inconclusive: 1.12 µM [inhibitor, partial curve, poor fit]",
CCC(=O)Nc1nc2ccccc2n1Cc1ccccc1Cl,"inconclusive: 12.6 µM [inhibitor, single point]",
COc1ccc(OCc2nc3ccccc3[nH]2)cc1,"inconclusive: 10 µM [inhibitor, partial curve]",
CCOc1ccc(-c2nnc(-c3ccco3)o2)cc1,"inconclusive: 6.31 µM [inhibitor, partial curve, poor fit]",
COc1ccc(Br)cc1/C=C/C(=O)NC(=S)Nc1ccc(CN2CCOCC2)cc1,"inconclusive: 1.12 µM [inhibitor, partial curve, poor fit]",
CC(C)(C)c1ccc(/C=N/Nc2cccc(C(=O)O)c2)cc1,"inconclusive: 6.31 µM [inhibitor, single point]",
Cc1nn(-c2ccccc2)c(Cl)c1/C=N/Nc1nc2ccccc2[nH]1,"inconclusive: 1.41 µM [inhibitor, full curve, poor fit]",
COc1ccc(C(=O)CN2C(=O)c3ccccc3S2(=O)=O)cc1,,inactive: -11.5%
COc1ccccc1NS(=O)(=O)c1cccc(N=C2N=C(N)c3ccccc32)c1,"inconclusive: 8.91 µM [inhibitor, partial curve, poor fit]",
COc1ccc(S(=O)(=O)N(NC2=NS(=O)(=O)c3ccccc32)C(=O)C(C)C)cc1,,inactive: -9.39%
COC(=O)c1cc(OC)c(OC)c(OC)c1N,,inactive: -3.32%
CCN(c1nc(N)c(C(=O)N=C(N)N)nc1Cl)C(C)C,"inconclusive: 8.91 µM [inhibitor, single point]",
O=C(c1ccccc1)N1CCN(C(=S)NCc2ccc3c(c2)OCO3)CC1,"inconclusive: 5.01 µM [inhibitor, single point]",
Clc1nc(CN2CCCCC2)nc2sc3c(c12)CCCC3,"inconclusive: 28.2 µM [inhibitor, single point]",
FC(F)(F)c1ccc2c(c1)[nH]c(=S)n2C1CC1,,inactive: -3.71%
O=C(Nc1ccc(Nc2ccccc2)cc1)c1ccc(Cl)c([N+](=O)[O-])c1,"inconclusive: 10 µM [inhibitor, single point]",

Compound,Potency,"activity change, negative = inhibition"
O=C(CN1C(=O)CCC1=O)NNc1ccc2ccccc2c1,"inconclusive: 11.2 µM [inhibitor, single point]",
Cc1ccc(NC(=S)NCc2ccccc2)cc1S(=O)(=O)N1CCCCC1,"inconclusive: 28.2 µM [inhibitor, single point]",
COc1ccc(N/C=C/C(=O)c2ccccc2)cc1,active: 10 µM,
CC(=O)N1N=C(c2ccc(NS(=O)(=O)c3ccccc3)cc2)CC1c1ccco1 (stereo not drawn),active: 0.708 µM,
Cc1ccc(C(=O)/C=C/C(=O)O)cc1,"inconclusive: 8.91 µM [inhibitor, partial curve, poor fit]",
COc1ccc(CCNC(=O)c2cc3c(=O)n4ccccc4nc3n(C3CCCCC3)c2=N)cc1OC,"inconclusive: 12.6 µM [inhibitor, single point]",
COc1ccc(N=C(C)C2=C(O)c3ccccc3C2=O)cc1,"inconclusive: 15.8 µM [inhibitor, partial curve, poor fit]",
Cn1c(CCNS(=O)(=O)c2ccccc2)nc2cc([N+](=O)[O-])ccc21,"inconclusive: 0.01 µM [inhibitor, full curve, poor fit]",
C/C(=N\NC(=O)CC1N=C(Cc2ccccc2)NNC1=O)c1ccc(Br)cc1 (stereo not drawn),"inconclusive: 11.2 µM [inhibitor, single point]",
COc1cccc(CN(CCC(C)C)S(=O)(=O)c2cc(Br)ccc2Br)c1,,inactive: -9.96%
CN(C)S(=O)(=O)c1ccc(C(=O)Nc2nnc(SCC(=O)NCC3CCCO3)s2)cc1 (stereo not drawn),active: 7.94 µM,
Cc1ccc(/C=C/S(=O)(=O)NCC(=O)OCC(=O)N2CC(=O)Nc3ccccc32)cc1,,inactive: 1.98%
CC(Oc1cccc(Cl)c1)C(=O)Nc1cc(S(=O)(=O)N2CCCCC2)ccc1N1CCOCC1 (stereo not drawn),"inconclusive: 10 µM [inhibitor, partial curve, poor fit]",
CCCCNc1c(-c2ccc(OC)c(SC3CCCCC3)c2)nc2cc(C)ccn12,"inconclusive: 0.0089 µM [inhibitor, full curve, poor fit]",
Cc1cc(-c2ccc3ccccc3c2)n2ncnc2n1,"inconclusive: 5.01 µM [inhibitor, single point]",
Cc1ccc(C(=O)OCC(=O)N2CCNC2=O)c(C)c1,,inactive: -1.7%
CC(C)Nc1nc(-c2cccnc2)nc(-c2ccc(Cl)cc2)c1C#N,,inactive: 3.25%
Nn1cnnc1N/N=C/c1ccc(F)cc1,"inconclusive: 12.6 µM [inhibitor, single point]",
O=C(N/N=C/c1ccc(F)cc1)c1ccccc1,"inconclusive: 10 µM [inhibitor, partial curve]",
O=C(CCCc1cccs1)Nc1ccc2c(c1)OCO2,"inconclusive: 14.1 µM [inhibitor, single point]",
CC(=O)O[C@H]1CC[C@@]2(C)C(=CC[C@H]3[C@@H]4CC[C@H](C(C)=O)[C@@]4(C)CC[C@@H]32)C1,,inactive: 3.34%

# 3 entries already listed, arranged by molecular weight, smallest number first.
Compound,Potency,"activity change, negative = inhibition"
O=C(N/N=C/c1ccc(F)cc1)c1ccccc1,"inconclusive: 10 µM [inhibitor, partial curve]",
Cn1c(CCNS(=O)(=O)c2ccccc2)nc2cc([N+](=O)[O-])ccc21,"inconclusive: 0.01 µM [inhibitor, full curve, poor fit]",
C/C(=N\NC(=O)CC1N=C(Cc2ccccc2)NNC1=O)c1ccc(Br)cc1 (stereo not drawn),"inconclusive: 11.2 µM [inhibitor, single point]",
